# Some of the results follow.
# The chains behind the UniProt entries cited, without tags or fusion partners. Where a name states a change or a piece, a line headed by the entry shows the natural chain unless it says otherwise.
# UniProt P51946: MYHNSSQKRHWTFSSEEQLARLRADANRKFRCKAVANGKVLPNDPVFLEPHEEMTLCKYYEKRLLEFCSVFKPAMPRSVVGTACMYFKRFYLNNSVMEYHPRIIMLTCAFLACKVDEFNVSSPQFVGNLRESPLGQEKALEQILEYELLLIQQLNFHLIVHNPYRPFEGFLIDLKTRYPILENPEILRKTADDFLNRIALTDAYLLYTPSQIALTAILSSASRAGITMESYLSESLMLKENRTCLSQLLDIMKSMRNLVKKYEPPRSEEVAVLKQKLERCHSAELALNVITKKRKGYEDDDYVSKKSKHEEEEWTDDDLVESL
# UniProt Q96JB5: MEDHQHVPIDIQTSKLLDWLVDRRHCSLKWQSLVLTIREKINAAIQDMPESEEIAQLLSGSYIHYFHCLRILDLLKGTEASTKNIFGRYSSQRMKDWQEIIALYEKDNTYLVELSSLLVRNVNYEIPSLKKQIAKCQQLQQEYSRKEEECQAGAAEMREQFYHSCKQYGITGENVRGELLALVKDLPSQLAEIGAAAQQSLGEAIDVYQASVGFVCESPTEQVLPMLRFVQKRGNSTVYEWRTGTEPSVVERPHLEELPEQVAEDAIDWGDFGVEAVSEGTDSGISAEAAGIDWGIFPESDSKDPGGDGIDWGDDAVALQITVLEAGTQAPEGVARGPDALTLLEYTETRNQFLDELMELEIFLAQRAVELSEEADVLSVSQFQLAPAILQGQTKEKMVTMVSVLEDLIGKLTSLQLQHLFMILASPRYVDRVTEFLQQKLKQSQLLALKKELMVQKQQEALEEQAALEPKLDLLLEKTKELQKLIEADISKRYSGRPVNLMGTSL
# UniProt P19397: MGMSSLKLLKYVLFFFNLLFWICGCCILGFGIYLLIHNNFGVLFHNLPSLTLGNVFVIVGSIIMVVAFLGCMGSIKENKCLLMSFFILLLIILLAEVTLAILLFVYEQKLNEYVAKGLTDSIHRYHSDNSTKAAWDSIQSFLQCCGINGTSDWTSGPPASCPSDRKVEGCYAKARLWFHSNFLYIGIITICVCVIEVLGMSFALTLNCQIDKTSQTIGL
# UniProt Q86X83, whole entry: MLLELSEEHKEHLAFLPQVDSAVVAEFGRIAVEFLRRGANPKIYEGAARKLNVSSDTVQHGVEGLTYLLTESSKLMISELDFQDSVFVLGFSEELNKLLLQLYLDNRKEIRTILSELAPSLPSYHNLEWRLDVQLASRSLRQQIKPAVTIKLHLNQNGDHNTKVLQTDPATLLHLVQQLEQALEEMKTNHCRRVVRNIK
# UniProt P08174: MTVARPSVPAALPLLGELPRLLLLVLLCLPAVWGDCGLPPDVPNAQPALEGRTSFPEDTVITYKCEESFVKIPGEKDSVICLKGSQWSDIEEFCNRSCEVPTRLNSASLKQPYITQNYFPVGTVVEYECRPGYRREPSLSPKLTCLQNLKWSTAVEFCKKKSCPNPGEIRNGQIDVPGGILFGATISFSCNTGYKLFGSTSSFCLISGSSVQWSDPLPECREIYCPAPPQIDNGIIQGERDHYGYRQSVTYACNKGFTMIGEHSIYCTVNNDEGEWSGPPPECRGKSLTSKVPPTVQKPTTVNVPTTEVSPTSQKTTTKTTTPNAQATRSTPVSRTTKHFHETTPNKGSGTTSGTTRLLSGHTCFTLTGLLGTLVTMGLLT
# UniProt Q9UIV1, whole entry: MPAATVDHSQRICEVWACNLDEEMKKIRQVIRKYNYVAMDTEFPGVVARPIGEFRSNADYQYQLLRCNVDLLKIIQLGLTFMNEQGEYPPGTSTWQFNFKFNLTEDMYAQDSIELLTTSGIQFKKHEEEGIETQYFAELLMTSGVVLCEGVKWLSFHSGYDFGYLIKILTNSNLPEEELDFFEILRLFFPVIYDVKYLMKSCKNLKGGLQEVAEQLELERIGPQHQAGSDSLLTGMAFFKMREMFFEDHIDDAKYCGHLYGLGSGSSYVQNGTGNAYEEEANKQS
# UniProt P08962, whole entry: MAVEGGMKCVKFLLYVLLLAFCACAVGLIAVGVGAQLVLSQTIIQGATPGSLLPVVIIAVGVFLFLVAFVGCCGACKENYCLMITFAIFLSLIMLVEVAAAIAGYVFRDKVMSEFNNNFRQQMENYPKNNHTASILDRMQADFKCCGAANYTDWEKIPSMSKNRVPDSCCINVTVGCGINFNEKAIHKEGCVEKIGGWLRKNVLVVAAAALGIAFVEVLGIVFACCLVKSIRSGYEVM
# UniProt Q9UIB8: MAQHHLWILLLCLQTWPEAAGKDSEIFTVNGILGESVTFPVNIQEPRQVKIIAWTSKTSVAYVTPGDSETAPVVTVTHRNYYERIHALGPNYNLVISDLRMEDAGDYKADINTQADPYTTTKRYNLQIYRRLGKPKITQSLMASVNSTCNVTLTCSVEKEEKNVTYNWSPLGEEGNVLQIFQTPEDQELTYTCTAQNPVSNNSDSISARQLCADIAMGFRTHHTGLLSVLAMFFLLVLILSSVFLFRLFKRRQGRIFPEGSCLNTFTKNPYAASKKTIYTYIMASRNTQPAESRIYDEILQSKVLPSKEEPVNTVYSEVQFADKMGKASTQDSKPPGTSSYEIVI
# UniProt Q9HAW4: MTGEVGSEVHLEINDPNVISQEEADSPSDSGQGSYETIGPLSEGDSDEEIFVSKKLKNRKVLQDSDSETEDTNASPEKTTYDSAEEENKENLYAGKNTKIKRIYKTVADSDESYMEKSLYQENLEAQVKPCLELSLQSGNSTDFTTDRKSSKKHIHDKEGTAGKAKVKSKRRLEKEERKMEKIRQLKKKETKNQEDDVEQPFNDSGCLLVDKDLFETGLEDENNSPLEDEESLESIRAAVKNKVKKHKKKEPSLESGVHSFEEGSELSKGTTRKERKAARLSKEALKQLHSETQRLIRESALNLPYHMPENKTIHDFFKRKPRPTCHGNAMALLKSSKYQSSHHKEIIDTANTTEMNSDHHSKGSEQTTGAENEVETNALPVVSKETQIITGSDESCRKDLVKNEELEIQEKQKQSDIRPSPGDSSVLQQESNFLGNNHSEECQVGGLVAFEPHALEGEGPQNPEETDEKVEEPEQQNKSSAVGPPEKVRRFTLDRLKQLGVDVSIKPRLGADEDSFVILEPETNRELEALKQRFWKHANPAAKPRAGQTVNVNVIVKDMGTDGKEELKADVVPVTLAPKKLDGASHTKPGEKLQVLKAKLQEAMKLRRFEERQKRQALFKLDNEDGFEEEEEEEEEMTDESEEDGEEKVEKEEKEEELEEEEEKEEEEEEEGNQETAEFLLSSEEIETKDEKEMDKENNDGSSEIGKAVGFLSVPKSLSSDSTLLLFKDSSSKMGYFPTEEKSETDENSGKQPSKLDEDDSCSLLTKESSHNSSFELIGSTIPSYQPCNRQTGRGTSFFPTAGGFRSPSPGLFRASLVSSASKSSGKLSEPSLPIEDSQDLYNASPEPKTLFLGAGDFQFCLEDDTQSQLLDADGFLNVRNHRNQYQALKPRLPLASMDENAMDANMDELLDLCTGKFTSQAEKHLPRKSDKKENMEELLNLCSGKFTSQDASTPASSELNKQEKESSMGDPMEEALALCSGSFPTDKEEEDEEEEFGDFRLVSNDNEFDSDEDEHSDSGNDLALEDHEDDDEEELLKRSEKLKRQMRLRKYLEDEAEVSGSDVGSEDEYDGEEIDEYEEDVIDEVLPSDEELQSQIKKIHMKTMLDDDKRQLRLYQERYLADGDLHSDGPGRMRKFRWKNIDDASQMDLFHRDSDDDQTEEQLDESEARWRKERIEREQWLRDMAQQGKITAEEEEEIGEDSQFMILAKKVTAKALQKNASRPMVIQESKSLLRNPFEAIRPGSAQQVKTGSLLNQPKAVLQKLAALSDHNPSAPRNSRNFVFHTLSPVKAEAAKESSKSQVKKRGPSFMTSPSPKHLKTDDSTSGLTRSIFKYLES
# UniProt Q99674: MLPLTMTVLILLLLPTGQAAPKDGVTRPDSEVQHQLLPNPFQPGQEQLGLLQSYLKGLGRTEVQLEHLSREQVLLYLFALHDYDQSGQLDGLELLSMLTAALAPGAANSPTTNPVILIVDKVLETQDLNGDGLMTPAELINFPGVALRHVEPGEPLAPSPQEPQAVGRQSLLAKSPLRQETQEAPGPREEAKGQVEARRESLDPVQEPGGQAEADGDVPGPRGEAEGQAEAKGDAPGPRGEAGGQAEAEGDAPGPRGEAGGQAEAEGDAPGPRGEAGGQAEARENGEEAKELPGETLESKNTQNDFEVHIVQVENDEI
# UniProt Q9H8M5: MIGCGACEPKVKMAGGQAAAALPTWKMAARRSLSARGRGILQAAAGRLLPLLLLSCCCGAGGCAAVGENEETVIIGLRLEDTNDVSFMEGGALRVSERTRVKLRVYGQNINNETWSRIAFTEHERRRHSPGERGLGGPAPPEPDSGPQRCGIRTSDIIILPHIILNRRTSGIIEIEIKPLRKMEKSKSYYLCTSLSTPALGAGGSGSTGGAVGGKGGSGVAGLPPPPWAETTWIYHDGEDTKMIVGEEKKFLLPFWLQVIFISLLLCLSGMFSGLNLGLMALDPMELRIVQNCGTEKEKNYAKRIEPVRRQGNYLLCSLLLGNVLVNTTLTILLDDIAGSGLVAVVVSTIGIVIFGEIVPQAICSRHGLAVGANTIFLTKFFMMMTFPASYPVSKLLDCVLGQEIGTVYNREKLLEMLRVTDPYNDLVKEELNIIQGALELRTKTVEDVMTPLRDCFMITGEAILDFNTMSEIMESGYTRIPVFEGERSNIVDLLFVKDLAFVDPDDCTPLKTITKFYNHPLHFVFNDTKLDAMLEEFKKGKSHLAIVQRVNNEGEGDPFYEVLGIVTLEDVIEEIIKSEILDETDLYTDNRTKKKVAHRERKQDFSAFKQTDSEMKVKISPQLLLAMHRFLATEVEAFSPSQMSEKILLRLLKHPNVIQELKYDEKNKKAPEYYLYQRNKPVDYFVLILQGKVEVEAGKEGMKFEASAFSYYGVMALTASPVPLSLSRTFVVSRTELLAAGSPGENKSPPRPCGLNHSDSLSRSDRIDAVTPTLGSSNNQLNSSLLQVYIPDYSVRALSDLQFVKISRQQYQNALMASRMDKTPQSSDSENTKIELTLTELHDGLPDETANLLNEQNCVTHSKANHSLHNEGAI
# UniProt P14209: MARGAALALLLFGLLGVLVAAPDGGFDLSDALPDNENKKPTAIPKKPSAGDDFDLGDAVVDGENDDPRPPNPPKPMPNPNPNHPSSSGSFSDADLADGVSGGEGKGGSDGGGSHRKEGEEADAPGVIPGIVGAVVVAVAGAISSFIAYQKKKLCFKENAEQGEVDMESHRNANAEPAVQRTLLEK
# UniProt Q13112, whole entry, looked up: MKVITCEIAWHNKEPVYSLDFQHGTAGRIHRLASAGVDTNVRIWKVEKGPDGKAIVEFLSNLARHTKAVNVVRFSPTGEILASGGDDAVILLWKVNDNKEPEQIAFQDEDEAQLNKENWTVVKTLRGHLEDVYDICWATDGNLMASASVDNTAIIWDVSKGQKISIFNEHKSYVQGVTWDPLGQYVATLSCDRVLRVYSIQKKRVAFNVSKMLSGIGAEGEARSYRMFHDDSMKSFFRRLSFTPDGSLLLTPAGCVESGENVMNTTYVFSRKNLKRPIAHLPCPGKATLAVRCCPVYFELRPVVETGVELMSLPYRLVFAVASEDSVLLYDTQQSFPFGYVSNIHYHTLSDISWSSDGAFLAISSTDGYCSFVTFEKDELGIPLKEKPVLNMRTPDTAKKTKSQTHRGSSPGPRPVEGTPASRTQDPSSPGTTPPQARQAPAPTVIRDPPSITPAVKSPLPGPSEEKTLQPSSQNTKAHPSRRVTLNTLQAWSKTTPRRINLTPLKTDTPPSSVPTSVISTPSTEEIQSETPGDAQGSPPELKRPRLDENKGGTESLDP
# UniProt P11049: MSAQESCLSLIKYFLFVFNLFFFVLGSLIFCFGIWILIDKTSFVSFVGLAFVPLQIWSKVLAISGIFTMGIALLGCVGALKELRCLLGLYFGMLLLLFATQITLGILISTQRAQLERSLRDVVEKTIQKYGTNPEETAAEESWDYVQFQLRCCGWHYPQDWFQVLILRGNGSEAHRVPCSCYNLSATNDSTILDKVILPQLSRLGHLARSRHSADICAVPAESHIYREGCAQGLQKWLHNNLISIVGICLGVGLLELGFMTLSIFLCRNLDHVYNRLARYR
# UniProt P41208: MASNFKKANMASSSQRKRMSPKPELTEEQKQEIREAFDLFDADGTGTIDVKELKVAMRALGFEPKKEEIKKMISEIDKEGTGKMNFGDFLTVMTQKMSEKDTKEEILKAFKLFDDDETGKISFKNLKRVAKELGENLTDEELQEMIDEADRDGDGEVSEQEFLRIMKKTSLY
# UniProt Q6IPU0: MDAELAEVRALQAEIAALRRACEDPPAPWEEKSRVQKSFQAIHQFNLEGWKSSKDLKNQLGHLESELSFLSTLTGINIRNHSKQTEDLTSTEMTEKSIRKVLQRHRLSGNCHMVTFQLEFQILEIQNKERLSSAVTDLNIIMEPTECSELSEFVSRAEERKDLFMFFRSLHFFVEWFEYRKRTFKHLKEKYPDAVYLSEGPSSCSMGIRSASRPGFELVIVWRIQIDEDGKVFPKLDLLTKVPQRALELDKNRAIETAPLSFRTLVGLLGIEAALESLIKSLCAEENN
# Compound: COc1ccc(Cn2ccc3ccc(C(=O)NO)cc32)cc1
# Test: dose-dependent thermal stabilisation call (2D-TPP, DLPTP, 10% FDR) (binary (1 = stabilised)); higher = stabilised by the compound
# Settings: system: HL-60 intact cells; concentration range 0.04-10 µM
row,Target,dose-dependent thermal stabilisation call
1,CCDC52 (UniProt Q8N0Z3),inactive: 0
2,COG1 (UniProt Q8WTW3),inactive: 0
3,CDC23 (UniProt Q9UJX2),inactive: 0
4,CLSTN1 (UniProt O94985),inactive: 0
5,COG7 (UniProt P83436),inactive: 0
6,CCNH (UniProt P51946),inactive: 0
7,CDK5RAP3 (UniProt Q96JB5),inactive: 0
8,CD53 (UniProt P19397),inactive: 0
9,CLC (UniProt Q05315),inactive: 0
10,COMMD2 (UniProt Q86X83),inactive: 0
11,CD55 (UniProt P08174),inactive: 0
12,CNPY2 (UniProt Q9Y2B0),inactive: 0
13,CLPTM1L (UniProt Q96KA5),inactive: 0
14,CEP170 (UniProt Q5SW79),inactive: 0
15,CNOT7 (UniProt Q9UIV1),inactive: 0
16,CD63 (UniProt P08962),inactive: 0
17,CHID1 (UniProt Q9BWS9),inactive: 0
18,CD84 (UniProt Q9UIB8),inactive: 0
19,CCRN4L (UniProt Q9UK39),inactive: 0

row,Target,dose-dependent thermal stabilisation call
1,CLSPN (UniProt Q9HAW4),inactive: 0
2,CGREF1 (UniProt Q99674),inactive: 0
3,CNNM2 (UniProt Q9H8M5),inactive: 0
4,CD99 (UniProt P14209),inactive: 0
5,CHP (UniProt Q99653),inactive: 0
6,COG8 (UniProt Q96MW5),inactive: 0
7,CHAF1B (UniProt Q13112),inactive: 0
8,CD37 (UniProt P11049),inactive: 0
9,CCT8 (UniProt P50990),inactive: 0
10,CEP97 (UniProt Q8IW35),inactive: 0
11,CECR5 (UniProt Q9BXW7),inactive: 0
12,CHUK (UniProt O15111),inactive: 0
13,CIRBP (UniProt Q14011),inactive: 0
14,CETN2 (UniProt P41208),inactive: 0
15,CENPP (UniProt Q6IPU0),inactive: 0
16,CHMP7 (UniProt Q8WUX9),inactive: 0
17,CNOT1 (UniProt A5YKK6),inactive: 0
18,CHD1 (UniProt O14646),inactive: 0

# As a working copy, some entries already given:
row,Target,dose-dependent thermal stabilisation call
5,CHP (UniProt Q99653),inactive: 0
6,COG8 (UniProt Q96MW5),inactive: 0

# — the supplement of paper PMC7666118
